Results are given in words; binding and its absence hold for the method and conditions named. Some binding calls cover weakened binding; strength is not graded here.
T1: CD40 ligand (UniProt P29965 108-261, limits assumed)
T1 sequence (looked up): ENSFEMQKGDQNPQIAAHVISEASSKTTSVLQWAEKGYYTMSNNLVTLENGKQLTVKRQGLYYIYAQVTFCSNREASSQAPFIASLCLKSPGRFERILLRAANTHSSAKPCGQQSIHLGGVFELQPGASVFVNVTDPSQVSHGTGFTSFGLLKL

B1: C02_40L_0704_1098 (peptide)
peptide: LWTLQVTGPDGVETYTTNFLWMCQGYYRHSVGYTPEWPGMADFGGSIVHPQTWPADLDLK
B2: C02_40L_0803_1124 (peptide)
peptide: LWTLQVTGPDGVETYTTNFLWMCQGYYRHSVGYTPEWPGMADFGGSIVHPQTWPADLDLK
B3: C02_40L_0803_1136 (peptide)
peptide: LWTLQVTGPDGVETYTTNFLWMCQGYYRHSVGYTPEWPGMADFGGSIVHPQTWPADLDLK
B4: C02_40L_0803_1138 (peptide)
peptide: LWTLQVTGPDGVETYTTNFLWMCQGYYRHSVGYTPEWPGMADFGGSIVHPQTWPADLDRK
B5: C02_40L_0803_1144 (peptide)
peptide: LWTLQVTGPDGVETYTTNFLWMCQGYYRHSVGYTPEWPGMADFGGSIVHPQTWPADLDLK
B6: C02_40L_0804_1160 (peptide)
peptide: LWTLQVTGPDGVETYTTNFLWMCQGYYRHSVGYTPEWPGMADFGGSIVHPQTWPADLDLK
B7: C02_40L_0804_1174 (peptide)
peptide: LWTLQVTGPDGVETYTTNFLWTCQGYYRHSVGYTPEWPGMADFGGSIVHPQTWPADLDLK
B8: C02_40L_0205_0996 (peptide)
peptide: LLGTPQNNAQAEVNLNINIGGPRYVGNYGPDFIYLDDYGFAVSWGWDYDVIRLGNFYFIYRDGYWFCN
B9: C02_40L_0304_1027 (peptide)
peptide: LLGTPQNNAQAEVNLNINIGGPRYVGNYGPDFIYLDDYGFAVSWGWDYDVIRL
B10: M07_40L_0104_0882 (peptide)
peptide: LLGVIVDGKEQTIIDDGNNEFGRKVSGDLDGTARFRWYLGNQTAADDYLLESYGEHPQFPWTTQHILK
B11: C03_40L_0105_0969 (peptide)
peptide: ELLLGVIVDGKEQTIIDDGNNEFGRKVSGDLDGTARFRWYLGNQTAADDYLLESYGEHPQFPWTTQHILKGN
B12: C02_40L_0103_0972 (peptide)
peptide: LYDYPDRSGPWWDAVFYEGNSLQYPSFVPQDVAGLMANTGGPDGFVKWLDHLFDGHYSQSNEPDLLAPYLYIQRNSC
B13: C02_40L_0204_0990 (peptide)
peptide: FKPKQLLGLTATPERMDGLNVQDEFFEGRIAAELRLWEALENDLLCPFHYFGIPDGTDLT
B14: M06_40L_0104_0819 (peptide)
peptide: FKPKQLLGLTATPERMDGLNVQDEFFEGRIAAELRLWEALENDLLCPFHYFGIPDGTDLT
B15: C02_40L_0803_1126 (peptide)
peptide: LAYGKSTEDKQDFLLFHVNLDPHAAQTFEFEVPLWEFGLPDDASVEVEDLLNGNRFTWHGKWQWLELDPQT
B16: C02_40L_0204_0994 (peptide)
peptide: LAYGKSTEDKQDFLLFHVNLDPHAAQTLEFEVPLWGFGLPDDASVEVEDLLNGDRFTWHGKWQWLELDPQT
B17: M06_40L_0103_0810 (peptide)
peptide: LKEIADNANVQKVAFDRYKIKYFKRDMIDCGFDERWIDEHMVSYGQGFEKV
B18: M06_40L_0104_0837 (peptide)
peptide: LKEIADNANVQKVAFDRYKIKYFKRDMIDCGFDERWIDEHMVSYGQGFVSMG

These binders were tested against T1, CD40 ligand (assay: phage display screen on CD40L).

Row | Binder | binding
1 | B1 | binds
2 | B2 | binds
3 | B3 | binds
4 | B4 | binds
5 | B5 | binds
6 | B6 | binds
7 | B7 | binds
8 | B8 | binds
9 | B9 | binds
10 | FWVSDIGWMMGPWTLIGNHTFAGTIFMYEGAPDYPNPDRFWEMIERH [C02_40L_0803_1137] | binds
11 | FWVSDIGWMMGPWTLIGNHTFAGTIFMYEGAPDYPNPDRFWEMIERH [C02_40L_0505_1075] | binds
12 | B10 | binds
13 | RWYLGNQTAADDYLLESYGEHPQFPWTTQHILK [C03_40L_0104_0943] | binds
14 | RWYLGNQTAADDYLLESYGEHPQFPWTTQHILK [C03_40L_0104_0944] | binds
15 | RWYLGNQTAADDYLLESYGEHPQFPWTTQHILK [C03_40L_0104_0945] | binds
16 | RWYLGNQTAADDYLLESYGEHPQFPWTTQHIRK [C03_40L_0104_0948] | binds
17 | RWYLGNQTAADDYLLESYGEHPQFPWTTQHILK [C03_40L_0104_0951] | binds
18 | RWYLGNQTAADDYLLESYGEHPQFPWTTQHILK [C03_40L_0104_0953] | binds
19 | RWYLGNQTAADDYLLESYGEHPQFPWTTQHIHK [C03_40L_0105_0957] | binds

Row | Binder | binding
20 | RWYLGNQTAADDYLLESYGEHPQFPWTTQHILK [C03_40L_0105_0958] | binds
21 | RWYLGNQTAADDYLLESYGEHPQFPWTTQHILK [C03_40L_0105_0959] | binds
22 | RWYLGNQTAADDYLLESYGEHPQFPWTTQHILK [C03_40L_0105_0960] | binds
23 | RWYLGNQTAADDYLLESYGEHPQFPWTTQHILKG [C03_40L_0105_0962] | binds
24 | RWYLGNQTAADDYLLESYDEHPQFPWTTQHILK [C03_40L_0105_0964] | binds
25 | RWYLGNQTAADDYLLESYGEHPQFPWTTQHILK [C03_40L_0105_0965] | binds
26 | RWYLGNQTAADDYLLESYGEHPQFPWTTQHILK [C03_40L_0105_0966] | binds
27 | RWYLGNQTAADDYLLESYGEHPQFPWTTQHIHK [C03_40L_0105_0967] | binds
28 | B11 | binds
29 | RWYLGNQTAADDYLLESYGEHPQFPWTTQHILK [C03_40L_0105_0970] | binds
30 | B12 | binds
31 | B13 | binds
32 | B14 | binds
33 | B15 | binds
34 | B16 | binds
35 | B17 | binds
36 | B18 | binds
37 | PFPDGSSCAPPGWLGGVPCFLQRYMLHQPDARGTLEPTRT [M06_40L_0104_0822] | binds
38 | PFPDGSSCAPPGWLGGVPCFLQRYMLHQPDARGTLEPTRT [M06_40L_0104_0830] | binds

— US20130266605A1, “PEPTIDE INHIBITORS OF CD40L SIGNALING AND USES THEREFOR” (PHYLOGICA LIMITED, priority 2010, published 2013)
